Results are given in words; binding and its absence hold for the method and conditions named. Binding seen in cells or lysates may run through a third protein. A yes stands for co-enrichment or nearness to the bait. Other partners may have been found. Sequences can lack the tags named with a protein.
Target: T1, HA-tagged ZEB2 (Zinc finger E-box-binding homeobox 2) (UniProt A0JP08)
T1 sequence: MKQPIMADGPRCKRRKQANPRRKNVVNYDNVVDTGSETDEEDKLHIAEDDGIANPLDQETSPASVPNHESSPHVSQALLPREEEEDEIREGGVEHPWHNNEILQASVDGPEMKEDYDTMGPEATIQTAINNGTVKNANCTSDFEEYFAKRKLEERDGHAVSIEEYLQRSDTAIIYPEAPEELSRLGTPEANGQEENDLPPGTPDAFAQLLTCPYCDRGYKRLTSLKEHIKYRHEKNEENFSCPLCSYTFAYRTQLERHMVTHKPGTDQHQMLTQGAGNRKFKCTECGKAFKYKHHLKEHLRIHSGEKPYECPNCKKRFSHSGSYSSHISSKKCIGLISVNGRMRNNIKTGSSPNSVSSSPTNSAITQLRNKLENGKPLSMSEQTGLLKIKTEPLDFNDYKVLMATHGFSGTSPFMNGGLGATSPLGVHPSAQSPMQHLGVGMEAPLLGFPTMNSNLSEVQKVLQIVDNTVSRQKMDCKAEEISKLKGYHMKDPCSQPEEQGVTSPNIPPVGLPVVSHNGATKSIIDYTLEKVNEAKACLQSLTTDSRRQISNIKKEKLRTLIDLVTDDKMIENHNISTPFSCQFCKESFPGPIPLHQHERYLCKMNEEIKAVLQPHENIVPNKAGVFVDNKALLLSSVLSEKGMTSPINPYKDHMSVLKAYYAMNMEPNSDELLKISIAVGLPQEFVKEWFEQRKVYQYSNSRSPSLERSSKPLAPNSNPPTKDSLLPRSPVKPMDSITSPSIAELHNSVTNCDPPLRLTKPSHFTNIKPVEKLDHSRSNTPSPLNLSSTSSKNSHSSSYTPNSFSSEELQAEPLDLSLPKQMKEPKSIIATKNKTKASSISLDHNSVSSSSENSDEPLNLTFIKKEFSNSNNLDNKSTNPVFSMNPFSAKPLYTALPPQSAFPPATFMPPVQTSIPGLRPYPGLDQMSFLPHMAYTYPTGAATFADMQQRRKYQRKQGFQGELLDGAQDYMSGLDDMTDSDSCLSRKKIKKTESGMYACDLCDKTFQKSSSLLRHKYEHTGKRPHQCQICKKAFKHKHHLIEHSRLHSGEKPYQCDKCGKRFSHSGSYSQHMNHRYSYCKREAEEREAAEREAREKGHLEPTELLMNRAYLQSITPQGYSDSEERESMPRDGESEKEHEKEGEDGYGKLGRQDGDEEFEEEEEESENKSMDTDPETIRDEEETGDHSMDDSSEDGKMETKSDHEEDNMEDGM
Experiment: affinity purification with mass spectrometry; lysate of about 2 x 10^8 SW480 cells stably overexpressing HA-tagged ZEB2 on anti-HA affinity beads, 4 °C, 2 h; washes with 0.42 M NaCl and 500 mM KCl buffers; SDS-PAGE and LC-MS/MS; HA alone as control

Sequences of proteins named here, by UniProt entry; tags and fusion partners are left off. A change or cut given only in a name is not applied to a line headed by its entry.
UniProt Q09028: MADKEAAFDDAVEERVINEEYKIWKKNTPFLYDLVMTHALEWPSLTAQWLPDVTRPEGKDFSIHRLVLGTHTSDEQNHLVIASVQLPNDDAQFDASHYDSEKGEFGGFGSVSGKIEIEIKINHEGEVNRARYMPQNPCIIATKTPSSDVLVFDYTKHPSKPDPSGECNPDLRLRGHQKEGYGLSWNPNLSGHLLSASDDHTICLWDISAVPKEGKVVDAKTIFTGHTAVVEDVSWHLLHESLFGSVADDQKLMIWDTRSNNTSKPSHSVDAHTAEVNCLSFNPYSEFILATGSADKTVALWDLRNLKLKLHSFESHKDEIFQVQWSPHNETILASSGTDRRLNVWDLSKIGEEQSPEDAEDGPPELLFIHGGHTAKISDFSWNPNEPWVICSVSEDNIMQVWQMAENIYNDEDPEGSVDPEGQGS
UniProt O14744: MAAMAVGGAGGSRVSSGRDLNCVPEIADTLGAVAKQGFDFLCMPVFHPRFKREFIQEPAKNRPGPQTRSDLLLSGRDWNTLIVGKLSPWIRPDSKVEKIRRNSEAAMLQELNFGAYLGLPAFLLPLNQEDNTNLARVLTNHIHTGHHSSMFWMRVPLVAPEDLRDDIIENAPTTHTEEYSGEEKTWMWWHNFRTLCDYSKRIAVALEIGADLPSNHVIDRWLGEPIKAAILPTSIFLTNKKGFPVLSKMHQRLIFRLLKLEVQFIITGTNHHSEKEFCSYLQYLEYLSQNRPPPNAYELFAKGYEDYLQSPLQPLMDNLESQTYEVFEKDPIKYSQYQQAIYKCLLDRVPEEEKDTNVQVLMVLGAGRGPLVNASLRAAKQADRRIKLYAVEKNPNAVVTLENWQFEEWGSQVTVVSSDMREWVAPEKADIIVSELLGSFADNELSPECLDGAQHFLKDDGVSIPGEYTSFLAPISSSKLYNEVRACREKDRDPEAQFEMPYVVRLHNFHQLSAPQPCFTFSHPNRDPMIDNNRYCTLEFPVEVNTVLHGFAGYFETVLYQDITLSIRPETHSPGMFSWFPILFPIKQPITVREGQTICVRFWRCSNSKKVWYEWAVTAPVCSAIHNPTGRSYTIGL

Substance	binding
Histone-binding protein RBBP4 (RbAp48), endogenous (from UniProt Q09028 1-425)	binds
Protein arginine N-methyltransferase 5 (PRMT5), endogenous (from UniProt O14744) (enzyme)	binds
